This is one part of the list.

Sequences of proteins named here, by UniProt entry; tags and fusion partners are left off. A change or cut given only in a name is not applied to a line headed by its entry.
UniProt Q7Z434: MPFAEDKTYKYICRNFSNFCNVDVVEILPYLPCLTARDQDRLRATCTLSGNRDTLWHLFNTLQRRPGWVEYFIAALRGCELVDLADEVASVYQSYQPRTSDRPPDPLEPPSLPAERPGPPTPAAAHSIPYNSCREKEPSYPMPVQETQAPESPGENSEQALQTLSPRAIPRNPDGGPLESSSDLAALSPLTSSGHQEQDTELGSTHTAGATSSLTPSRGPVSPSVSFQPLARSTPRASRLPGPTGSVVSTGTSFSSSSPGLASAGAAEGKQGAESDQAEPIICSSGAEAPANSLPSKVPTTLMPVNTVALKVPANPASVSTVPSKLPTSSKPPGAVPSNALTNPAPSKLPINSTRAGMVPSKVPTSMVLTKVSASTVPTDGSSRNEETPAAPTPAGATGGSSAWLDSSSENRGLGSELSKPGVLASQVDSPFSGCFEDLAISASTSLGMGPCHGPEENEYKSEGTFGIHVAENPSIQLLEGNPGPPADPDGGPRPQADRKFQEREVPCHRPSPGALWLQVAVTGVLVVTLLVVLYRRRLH
UniProt O95402: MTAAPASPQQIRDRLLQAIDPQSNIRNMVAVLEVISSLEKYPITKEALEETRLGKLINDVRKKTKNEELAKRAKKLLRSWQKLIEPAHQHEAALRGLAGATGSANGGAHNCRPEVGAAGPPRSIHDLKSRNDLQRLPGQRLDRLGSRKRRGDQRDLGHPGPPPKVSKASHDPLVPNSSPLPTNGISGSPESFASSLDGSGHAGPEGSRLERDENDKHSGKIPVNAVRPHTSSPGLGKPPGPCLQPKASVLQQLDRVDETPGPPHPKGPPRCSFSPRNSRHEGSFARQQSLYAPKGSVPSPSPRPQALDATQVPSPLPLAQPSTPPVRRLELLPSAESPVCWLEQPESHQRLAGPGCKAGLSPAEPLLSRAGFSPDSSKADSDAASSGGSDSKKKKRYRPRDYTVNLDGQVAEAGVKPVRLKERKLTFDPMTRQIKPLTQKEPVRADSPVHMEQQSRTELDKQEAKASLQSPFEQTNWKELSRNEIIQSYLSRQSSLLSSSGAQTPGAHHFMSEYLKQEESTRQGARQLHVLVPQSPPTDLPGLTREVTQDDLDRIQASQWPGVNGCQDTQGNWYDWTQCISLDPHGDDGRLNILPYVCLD
UniProt Q9H1U4: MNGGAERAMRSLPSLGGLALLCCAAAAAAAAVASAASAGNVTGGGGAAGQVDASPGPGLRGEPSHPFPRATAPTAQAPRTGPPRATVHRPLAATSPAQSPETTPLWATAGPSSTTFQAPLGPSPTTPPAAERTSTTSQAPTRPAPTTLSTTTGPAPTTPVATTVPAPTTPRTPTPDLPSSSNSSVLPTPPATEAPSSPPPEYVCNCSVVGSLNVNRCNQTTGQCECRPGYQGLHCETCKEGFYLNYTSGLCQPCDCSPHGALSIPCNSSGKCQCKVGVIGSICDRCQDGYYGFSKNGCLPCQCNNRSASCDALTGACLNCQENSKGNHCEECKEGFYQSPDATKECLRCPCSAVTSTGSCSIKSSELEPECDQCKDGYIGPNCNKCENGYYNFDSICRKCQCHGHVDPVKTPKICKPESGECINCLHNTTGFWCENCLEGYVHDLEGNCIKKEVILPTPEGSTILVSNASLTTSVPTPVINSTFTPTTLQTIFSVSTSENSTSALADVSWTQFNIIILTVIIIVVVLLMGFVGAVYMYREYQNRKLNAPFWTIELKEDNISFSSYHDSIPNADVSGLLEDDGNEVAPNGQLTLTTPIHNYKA
UniProt O14770: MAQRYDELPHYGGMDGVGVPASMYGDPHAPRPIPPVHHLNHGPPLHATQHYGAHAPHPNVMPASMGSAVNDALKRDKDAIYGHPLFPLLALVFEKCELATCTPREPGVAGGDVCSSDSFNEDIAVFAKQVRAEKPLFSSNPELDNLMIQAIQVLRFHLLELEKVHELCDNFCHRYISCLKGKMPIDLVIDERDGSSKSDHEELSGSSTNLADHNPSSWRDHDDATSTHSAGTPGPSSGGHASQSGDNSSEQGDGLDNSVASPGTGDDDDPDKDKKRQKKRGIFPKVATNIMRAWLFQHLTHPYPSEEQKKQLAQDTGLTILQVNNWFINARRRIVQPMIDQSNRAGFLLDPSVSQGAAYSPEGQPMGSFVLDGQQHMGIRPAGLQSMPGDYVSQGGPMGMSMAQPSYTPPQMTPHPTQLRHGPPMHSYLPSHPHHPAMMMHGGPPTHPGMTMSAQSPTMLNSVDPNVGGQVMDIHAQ
UniProt Q9BTE3: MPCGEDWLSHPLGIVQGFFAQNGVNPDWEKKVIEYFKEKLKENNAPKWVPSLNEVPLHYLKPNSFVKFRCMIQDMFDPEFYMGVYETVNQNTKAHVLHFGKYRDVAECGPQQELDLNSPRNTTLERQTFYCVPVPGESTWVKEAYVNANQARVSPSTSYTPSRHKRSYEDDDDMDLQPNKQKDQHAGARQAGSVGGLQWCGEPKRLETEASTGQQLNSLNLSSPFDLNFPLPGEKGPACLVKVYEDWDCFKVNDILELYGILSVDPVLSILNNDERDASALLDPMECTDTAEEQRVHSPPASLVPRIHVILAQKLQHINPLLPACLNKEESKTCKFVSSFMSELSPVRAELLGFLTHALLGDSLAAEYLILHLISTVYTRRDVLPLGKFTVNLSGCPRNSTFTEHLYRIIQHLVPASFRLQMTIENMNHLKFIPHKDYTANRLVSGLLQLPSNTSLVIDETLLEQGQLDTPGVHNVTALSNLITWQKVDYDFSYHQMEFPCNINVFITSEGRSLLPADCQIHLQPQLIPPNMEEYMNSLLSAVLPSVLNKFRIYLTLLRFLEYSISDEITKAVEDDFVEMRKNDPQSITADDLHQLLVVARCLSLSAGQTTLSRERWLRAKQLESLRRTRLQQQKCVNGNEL
UniProt Q5VZF2: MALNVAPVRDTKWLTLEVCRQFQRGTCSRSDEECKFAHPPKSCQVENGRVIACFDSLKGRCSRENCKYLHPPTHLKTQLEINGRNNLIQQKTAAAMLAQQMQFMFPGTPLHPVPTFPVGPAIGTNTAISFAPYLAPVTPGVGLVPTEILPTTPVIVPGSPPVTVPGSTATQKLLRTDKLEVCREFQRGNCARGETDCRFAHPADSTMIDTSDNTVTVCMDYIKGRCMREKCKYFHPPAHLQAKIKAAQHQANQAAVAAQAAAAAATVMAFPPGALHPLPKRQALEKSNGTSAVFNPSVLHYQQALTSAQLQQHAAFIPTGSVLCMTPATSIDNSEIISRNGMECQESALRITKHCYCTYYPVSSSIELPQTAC
UniProt Q7L2J0: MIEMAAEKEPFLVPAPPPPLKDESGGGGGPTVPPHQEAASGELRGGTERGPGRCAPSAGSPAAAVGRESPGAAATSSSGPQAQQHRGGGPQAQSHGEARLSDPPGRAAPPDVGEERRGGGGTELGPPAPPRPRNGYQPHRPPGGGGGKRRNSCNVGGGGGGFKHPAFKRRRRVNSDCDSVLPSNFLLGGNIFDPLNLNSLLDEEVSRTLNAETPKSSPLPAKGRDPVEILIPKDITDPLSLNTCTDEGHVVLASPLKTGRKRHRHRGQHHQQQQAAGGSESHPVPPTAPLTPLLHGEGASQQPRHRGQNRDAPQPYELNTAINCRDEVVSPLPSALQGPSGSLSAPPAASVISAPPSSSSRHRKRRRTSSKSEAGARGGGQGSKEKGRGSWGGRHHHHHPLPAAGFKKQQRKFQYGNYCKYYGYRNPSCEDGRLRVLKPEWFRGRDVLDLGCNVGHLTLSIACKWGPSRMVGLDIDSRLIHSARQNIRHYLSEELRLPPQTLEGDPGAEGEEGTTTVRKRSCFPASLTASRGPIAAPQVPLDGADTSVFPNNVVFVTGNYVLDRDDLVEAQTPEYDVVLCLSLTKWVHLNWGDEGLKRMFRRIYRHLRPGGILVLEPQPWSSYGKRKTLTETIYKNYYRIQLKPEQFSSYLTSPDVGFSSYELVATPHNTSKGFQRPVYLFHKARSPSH
UniProt Q9NVC6: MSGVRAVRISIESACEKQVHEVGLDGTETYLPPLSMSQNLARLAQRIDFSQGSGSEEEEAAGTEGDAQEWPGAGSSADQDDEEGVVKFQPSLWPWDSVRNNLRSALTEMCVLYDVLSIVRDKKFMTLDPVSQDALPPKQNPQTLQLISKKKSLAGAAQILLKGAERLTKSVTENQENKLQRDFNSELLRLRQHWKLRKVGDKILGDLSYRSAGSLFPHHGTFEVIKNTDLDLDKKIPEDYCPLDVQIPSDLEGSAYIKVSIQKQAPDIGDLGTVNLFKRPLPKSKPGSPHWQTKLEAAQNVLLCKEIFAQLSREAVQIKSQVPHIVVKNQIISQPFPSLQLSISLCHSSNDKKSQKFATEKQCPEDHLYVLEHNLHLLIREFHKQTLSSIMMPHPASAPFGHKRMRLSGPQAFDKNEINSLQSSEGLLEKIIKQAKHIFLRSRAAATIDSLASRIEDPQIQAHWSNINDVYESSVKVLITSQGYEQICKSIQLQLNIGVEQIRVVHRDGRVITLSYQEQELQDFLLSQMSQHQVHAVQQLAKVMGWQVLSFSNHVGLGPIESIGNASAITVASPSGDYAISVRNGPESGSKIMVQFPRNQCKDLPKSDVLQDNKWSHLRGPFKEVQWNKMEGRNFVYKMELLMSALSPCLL
UniProt Q14814: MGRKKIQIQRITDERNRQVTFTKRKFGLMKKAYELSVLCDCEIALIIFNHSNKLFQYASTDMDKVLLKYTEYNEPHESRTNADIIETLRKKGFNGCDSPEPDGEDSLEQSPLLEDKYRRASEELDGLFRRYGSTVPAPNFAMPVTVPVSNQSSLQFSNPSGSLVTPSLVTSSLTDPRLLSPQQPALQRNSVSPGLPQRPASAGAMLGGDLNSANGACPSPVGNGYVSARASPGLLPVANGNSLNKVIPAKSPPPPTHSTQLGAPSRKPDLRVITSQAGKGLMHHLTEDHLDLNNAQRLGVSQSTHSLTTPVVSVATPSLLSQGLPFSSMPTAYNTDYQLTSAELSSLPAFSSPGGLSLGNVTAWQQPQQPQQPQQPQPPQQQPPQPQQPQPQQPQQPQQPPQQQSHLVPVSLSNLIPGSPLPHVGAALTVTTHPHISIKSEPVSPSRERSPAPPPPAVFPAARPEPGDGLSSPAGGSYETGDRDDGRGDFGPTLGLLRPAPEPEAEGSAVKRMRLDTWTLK
UniProt Q9H3U5: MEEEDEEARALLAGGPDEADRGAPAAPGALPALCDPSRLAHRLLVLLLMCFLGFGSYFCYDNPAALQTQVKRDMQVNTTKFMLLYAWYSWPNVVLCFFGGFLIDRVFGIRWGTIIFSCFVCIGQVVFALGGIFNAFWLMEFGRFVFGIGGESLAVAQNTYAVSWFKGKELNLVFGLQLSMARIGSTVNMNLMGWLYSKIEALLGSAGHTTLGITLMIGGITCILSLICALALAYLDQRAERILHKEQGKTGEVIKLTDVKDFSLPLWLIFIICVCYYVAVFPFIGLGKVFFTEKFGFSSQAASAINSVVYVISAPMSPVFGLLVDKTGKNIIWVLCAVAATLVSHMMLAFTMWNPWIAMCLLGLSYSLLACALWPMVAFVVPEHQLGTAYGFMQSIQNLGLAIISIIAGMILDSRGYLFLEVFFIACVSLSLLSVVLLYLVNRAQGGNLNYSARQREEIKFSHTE
UniProt Q6ZWT7: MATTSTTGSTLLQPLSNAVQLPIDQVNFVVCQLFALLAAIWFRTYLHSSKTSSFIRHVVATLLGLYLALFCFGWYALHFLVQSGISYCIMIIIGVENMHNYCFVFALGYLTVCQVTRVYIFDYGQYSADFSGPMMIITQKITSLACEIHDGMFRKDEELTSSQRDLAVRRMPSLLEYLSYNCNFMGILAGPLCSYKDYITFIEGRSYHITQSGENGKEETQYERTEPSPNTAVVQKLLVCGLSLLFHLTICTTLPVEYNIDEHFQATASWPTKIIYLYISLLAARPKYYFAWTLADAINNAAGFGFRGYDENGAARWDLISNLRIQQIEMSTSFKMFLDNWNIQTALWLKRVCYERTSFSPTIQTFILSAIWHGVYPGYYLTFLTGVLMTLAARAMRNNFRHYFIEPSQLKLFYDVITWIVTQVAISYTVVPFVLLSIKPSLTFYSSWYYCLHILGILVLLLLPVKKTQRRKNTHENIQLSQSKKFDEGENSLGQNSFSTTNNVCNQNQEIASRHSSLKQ
UniProt Q02078: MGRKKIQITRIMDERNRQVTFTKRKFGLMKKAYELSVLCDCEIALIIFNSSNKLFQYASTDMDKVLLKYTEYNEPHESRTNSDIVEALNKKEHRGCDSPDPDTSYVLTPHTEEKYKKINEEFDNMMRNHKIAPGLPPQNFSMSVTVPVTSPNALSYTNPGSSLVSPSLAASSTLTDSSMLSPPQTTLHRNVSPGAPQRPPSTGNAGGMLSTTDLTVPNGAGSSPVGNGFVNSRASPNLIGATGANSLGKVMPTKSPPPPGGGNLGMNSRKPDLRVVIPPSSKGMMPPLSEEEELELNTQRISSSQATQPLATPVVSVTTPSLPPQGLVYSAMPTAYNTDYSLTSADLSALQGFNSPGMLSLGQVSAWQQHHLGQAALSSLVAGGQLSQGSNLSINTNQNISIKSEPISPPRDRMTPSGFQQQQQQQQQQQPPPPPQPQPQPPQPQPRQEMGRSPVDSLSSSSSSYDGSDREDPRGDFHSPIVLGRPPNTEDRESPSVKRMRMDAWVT

Compound in the first experiment: C1=CC2=C(C=CC(=C2)/C=C\3/C(=O)NC(=NCC4=CC=CS4)S3)N=C1
The experiment can be described thus: log2 fold change, soluble protein after heating vs DMSO (PISA); higher = thermal stabilisation; K562 lysate, 10 uM; active = over 0.2 and 3.5 SD of the protein, either way, in both replicates (recomputed). The gist of the method:
(§1)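 Pellets of K562 cells were dounce-homogenised in PBS pH 7.4 with 1 mM MgCl2, and the crude extract was held at 1 mg/mL protein for a 30 min treatment with 10 μM compound. Aliquots were heated for 3 min over 48°C-58°C and pooled before NP-40 was added to 0.5% at 4°C. The supernatant from 21,000xg for 90 min was quantified by TMTpro 16plex LC-MS/MS with channel sums equalised. Values are reported from duplicates as log-two fold change in thermal stability relative to solvent controls.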
In the case of MAVS (UniProt Q7Z434), the log2 fold change was inactive: -0.007.

For the target MED26 (UniProt O95402), the log2 fold change was inactive: 0.009.

On to MDM1 (UniProt Q8TC05), for which the log2 fold change was inactive: -0.066.

For MEGF9 (UniProt Q9H1U4), the log2 fold change was inactive: 0.01.

Take MELTF (UniProt P08582): the log2 fold change was inactive: -0.013.

As for MED11 (UniProt Q9P086), the log2 fold change was inactive: 0.086.

Consider MEIS2 (UniProt O14770), for which the log2 fold change was inactive: 0.008.

As to MCMBP isoform 2 (UniProt Q9BTE3), the log2 fold change was inactive: -0.168.

In the case of MFAP3 (UniProt P55082), the log2 fold change is inactive: 0.011.

Take MBNL2 (UniProt Q5VZF2): the log2 fold change is inactive: 0.06.

Consider MEN1 (UniProt O00255), for which the log2 fold change is inactive: 0.111.

Turning to MEPCE (UniProt Q7L2J0), the log2 fold change was inactive: 0.016.

For the target MED17 (UniProt Q9NVC6), the log2 fold change is inactive: 0.065.

On to MEF2D (UniProt Q14814), for which the log2 fold change is inactive: -0.011.

On to MFSD1 isoform 6 (UniProt Q9H3U5), for which the log2 fold change was inactive: -0.071.

Regarding MBOAT2 (UniProt Q6ZWT7), the log2 fold change is inactive: -0.022.

Compound in a further experiment: C1=CC2=NC=CN=C2C=C1/C=C/3\C(=O)NC(=O)S3
The description is as above. The gist of the method:
as §1
In the case of METTL7A (UniProt Q9H8H3), the log2 fold change is inactive: -0.041.

For MCM10 (UniProt Q7L590), the log2 fold change was inactive: -0.144.

On to MDM2 isoform 11 (UniProt Q00987), for which the log2 fold change is inactive: 0.021.

With MCFD2 (UniProt Q8NI22), the log2 fold change was inactive: 0.003.

With MCM5 (UniProt P33992), the log2 fold change was inactive: -0.012.

In the case of MBOAT1 (UniProt Q6ZNC8), the log2 fold change was inactive: -0.075.

MED13L (UniProt Q71F56): the log2 fold change is inactive: 0.034.

On to MCOLN1 (UniProt Q9GZU1), for which the log2 fold change was inactive: -0.143.

Take METTL14 (UniProt Q9HCE5): the log2 fold change was inactive: -0.053.

For MED12 isoform 2 (UniProt Q93074), the log2 fold change is inactive: 0.008.

METTL16 (UniProt Q86W50): the log2 fold change is inactive: -0.034.

Regarding MFSD8 (UniProt Q8NHS3), the log2 fold change was inactive: -0.028.

METTL5 (UniProt Q9NRN9): the log2 fold change was inactive: 0.004.

Consider MED20 (UniProt Q9H944), for which the log2 fold change was inactive: 0.022.

Regarding MCM3AP (UniProt O60318), the log2 fold change was inactive: -0.142.

For MED14 (UniProt O60244), the log2 fold change was inactive: 0.015.

In the case of MEF2A isoform 2 (UniProt Q02078), the log2 fold change was inactive: -0.004.

In the case of MED22 isoform 2 (UniProt Q15528), the log2 fold change was inactive: -0.031.

As for MFHAS1 (UniProt Q9Y4C4), the log2 fold change was inactive: 0.041.

On to MAVS (UniProt Q7Z434), for which the log2 fold change was inactive: 0.04.

MED26 (UniProt O95402): the log2 fold change was inactive: 0.04.

Consider MEGF9 (UniProt Q9H1U4), for which the log2 fold change is inactive: -0.009.

In the case of MELTF (UniProt P08582), the log2 fold change was inactive: -0.09.

Regarding MED11 (UniProt Q9P086), the log2 fold change was inactive: -0.043.

Turning to MEIS2 (UniProt O14770), the log2 fold change is inactive: -0.034.

Consider MCMBP isoform 2 (UniProt Q9BTE3), for which the log2 fold change was inactive: -0.156.

For MEPCE (UniProt Q7L2J0), the log2 fold change was inactive: -0.045.

Turning to MED17 (UniProt Q9NVC6), the log2 fold change was inactive: -0.017.

Turning to MEF2D (UniProt Q14814), the log2 fold change is inactive: 0.035.

In the case of MFSD1 isoform 6 (UniProt Q9H3U5), the log2 fold change is inactive: 0.031.

In the case of MBOAT2 (UniProt Q6ZWT7), the log2 fold change is inactive: -0.036.

Compound in another experiment: C1=CC=C(C=C1)C2=NC(=C(N2)C3=CC=NC=C3)C4=CC(=C(C=C4)Cl)O
The experiment is described as above. The gist of the method:
as §1
As to METTL7A (UniProt Q9H8H3), the log2 fold change was inactive: 0.048.

On to MCM10 (UniProt Q7L590), for which the log2 fold change was inactive: -0.025.

As for MDM2 isoform 11 (UniProt Q00987), the log2 fold change was inactive: 0.084.

Take MCFD2 (UniProt Q8NI22): the log2 fold change is inactive: 0.004.

Regarding MCM5 (UniProt P33992), the log2 fold change was inactive: -0.001.

In the case of MBOAT1 (UniProt Q6ZNC8), the log2 fold change was inactive: 0.024.

As to MED13L (UniProt Q71F56), the log2 fold change was inactive: -0.014.

MCOLN1 (UniProt Q9GZU1): the log2 fold change was inactive: 0.027.

In the case of METTL14 (UniProt Q9HCE5), the log2 fold change is inactive: 0.043.

For MELK (UniProt Q14680), the log2 fold change was inactive: 0.111.

In the case of MED12 isoform 2 (UniProt Q93074), the log2 fold change is inactive: 0.004.

In the case of METTL16 (UniProt Q86W50), the log2 fold change was inactive: 0.034.

On to MFSD8 (UniProt Q8NHS3), for which the log2 fold change was inactive: -0.006.

Consider METTL5 (UniProt Q9NRN9), for which the log2 fold change is inactive: -0.036.

In the case of MED20 (UniProt Q9H944), the log2 fold change is inactive: -0.016.

On to MCM3AP (UniProt O60318), for which the log2 fold change was inactive: -0.082.

MED14 (UniProt O60244): the log2 fold change is inactive: 0.

Consider MEF2A isoform 2 (UniProt Q02078), for which the log2 fold change is inactive: 0.01.

MED22 isoform 2 (UniProt Q15528): the log2 fold change is inactive: -0.078.

MFHAS1 (UniProt Q9Y4C4): the log2 fold change was inactive: -0.047.

With MAVS (UniProt Q7Z434), the log2 fold change is inactive: -0.002.

For the target MED26 (UniProt O95402), the log2 fold change is inactive: 0.009.

Consider MDM1 (UniProt Q8TC05), for which the log2 fold change was inactive: -0.054.

With MEGF9 (UniProt Q9H1U4), the log2 fold change was inactive: 0.048.

As to MEIS2 (UniProt O14770), the log2 fold change was inactive: -0.001.

For MCMBP isoform 2 (UniProt Q9BTE3), the log2 fold change is inactive: -0.051.

On to MFAP3 (UniProt P55082), for which the log2 fold change was inactive: -0.004.

For the target MBNL2 (UniProt Q5VZF2), the log2 fold change was inactive: -0.064.

As to MEN1 (UniProt O00255), the log2 fold change was inactive: 0.068.

As to MEPCE (UniProt Q7L2J0), the log2 fold change was inactive: -0.008.

MED17 (UniProt Q9NVC6): the log2 fold change is inactive: 0.014.

In the case of MEF2D (UniProt Q14814), the log2 fold change is inactive: -0.042.

With MFSD1 isoform 6 (UniProt Q9H3U5), the log2 fold change is inactive: 0.008.

MBOAT2 (UniProt Q6ZWT7): the log2 fold change is inactive: -0.007.
